Protein sequences, listed by entry. Tags and fused reporters are not part of them. Residues count along the entry.
UniProt Q9V496, residues 26-3351: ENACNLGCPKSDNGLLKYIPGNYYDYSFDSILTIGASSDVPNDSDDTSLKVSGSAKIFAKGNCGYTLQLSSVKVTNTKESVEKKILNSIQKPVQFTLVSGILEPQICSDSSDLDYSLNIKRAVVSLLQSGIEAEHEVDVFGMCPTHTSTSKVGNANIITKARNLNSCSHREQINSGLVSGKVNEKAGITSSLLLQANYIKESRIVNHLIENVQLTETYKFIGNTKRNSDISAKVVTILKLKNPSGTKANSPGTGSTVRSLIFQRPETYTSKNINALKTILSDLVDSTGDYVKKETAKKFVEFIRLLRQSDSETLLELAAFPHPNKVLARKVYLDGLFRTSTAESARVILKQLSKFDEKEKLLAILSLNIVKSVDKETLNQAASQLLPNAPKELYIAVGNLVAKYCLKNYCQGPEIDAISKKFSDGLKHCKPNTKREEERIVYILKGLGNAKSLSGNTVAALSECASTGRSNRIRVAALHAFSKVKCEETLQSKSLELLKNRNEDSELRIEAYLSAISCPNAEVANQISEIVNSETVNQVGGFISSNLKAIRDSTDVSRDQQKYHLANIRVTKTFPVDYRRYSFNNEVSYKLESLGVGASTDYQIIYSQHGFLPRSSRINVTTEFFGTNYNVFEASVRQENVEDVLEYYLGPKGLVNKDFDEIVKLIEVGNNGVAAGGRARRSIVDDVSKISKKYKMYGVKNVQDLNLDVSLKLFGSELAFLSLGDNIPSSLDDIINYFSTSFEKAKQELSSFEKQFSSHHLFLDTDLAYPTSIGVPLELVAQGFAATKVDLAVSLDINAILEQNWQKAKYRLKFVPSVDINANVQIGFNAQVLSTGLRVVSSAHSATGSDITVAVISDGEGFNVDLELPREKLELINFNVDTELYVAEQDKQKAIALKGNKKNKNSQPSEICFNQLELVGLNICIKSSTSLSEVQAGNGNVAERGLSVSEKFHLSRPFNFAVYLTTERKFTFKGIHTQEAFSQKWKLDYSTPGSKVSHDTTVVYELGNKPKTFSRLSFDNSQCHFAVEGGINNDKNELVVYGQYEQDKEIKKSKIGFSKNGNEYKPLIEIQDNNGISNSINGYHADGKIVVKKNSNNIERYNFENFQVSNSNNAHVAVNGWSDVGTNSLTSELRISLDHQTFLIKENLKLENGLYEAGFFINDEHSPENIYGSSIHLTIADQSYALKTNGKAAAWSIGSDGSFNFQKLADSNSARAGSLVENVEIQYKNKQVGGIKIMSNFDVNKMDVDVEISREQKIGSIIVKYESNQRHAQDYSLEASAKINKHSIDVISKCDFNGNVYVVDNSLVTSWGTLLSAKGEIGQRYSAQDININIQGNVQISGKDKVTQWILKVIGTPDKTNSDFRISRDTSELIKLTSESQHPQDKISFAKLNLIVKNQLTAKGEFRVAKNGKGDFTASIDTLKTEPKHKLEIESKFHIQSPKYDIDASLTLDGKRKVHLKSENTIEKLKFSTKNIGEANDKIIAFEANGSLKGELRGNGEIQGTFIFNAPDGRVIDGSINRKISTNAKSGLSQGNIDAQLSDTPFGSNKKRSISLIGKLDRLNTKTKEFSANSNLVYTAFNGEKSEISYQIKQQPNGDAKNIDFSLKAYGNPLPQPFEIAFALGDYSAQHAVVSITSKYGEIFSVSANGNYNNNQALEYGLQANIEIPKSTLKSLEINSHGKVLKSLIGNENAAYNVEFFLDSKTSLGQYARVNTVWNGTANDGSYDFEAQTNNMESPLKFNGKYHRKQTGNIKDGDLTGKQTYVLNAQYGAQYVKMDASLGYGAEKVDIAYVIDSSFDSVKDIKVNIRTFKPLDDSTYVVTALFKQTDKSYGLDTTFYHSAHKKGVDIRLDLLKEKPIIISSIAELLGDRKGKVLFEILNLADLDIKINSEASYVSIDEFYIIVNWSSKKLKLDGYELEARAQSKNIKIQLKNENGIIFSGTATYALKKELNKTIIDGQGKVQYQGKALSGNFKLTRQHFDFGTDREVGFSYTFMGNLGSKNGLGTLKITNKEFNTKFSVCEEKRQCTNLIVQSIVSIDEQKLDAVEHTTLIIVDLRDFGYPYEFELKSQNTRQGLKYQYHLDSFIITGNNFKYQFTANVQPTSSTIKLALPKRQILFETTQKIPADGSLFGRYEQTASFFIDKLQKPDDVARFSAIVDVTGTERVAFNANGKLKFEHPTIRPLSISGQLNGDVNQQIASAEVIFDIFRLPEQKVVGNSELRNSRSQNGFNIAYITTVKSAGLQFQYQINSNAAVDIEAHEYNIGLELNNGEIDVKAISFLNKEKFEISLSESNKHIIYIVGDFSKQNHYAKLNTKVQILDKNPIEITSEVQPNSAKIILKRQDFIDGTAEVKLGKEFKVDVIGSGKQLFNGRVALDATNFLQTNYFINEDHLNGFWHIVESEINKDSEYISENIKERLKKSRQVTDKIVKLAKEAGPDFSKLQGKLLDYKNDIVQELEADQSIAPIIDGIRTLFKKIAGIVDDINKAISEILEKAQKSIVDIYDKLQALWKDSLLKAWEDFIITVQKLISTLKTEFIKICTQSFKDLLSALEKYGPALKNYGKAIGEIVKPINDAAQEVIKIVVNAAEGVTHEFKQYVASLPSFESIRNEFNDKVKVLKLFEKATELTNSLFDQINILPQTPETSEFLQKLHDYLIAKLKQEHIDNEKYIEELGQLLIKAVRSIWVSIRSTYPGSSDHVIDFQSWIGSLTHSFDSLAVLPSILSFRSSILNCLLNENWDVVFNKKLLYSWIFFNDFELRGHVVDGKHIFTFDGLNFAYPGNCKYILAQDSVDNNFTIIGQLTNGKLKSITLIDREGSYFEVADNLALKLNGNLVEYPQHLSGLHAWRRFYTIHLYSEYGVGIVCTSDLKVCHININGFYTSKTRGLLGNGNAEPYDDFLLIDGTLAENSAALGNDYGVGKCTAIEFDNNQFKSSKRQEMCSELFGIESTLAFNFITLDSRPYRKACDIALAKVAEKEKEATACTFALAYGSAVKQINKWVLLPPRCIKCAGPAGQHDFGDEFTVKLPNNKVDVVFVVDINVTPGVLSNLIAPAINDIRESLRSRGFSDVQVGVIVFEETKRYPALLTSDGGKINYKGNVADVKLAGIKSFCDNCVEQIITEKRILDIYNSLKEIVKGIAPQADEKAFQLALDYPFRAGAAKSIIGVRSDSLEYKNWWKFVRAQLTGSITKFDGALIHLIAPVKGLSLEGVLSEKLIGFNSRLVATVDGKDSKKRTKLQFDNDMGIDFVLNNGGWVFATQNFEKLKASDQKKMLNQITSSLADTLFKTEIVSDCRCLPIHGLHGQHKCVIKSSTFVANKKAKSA
UniProt O18640: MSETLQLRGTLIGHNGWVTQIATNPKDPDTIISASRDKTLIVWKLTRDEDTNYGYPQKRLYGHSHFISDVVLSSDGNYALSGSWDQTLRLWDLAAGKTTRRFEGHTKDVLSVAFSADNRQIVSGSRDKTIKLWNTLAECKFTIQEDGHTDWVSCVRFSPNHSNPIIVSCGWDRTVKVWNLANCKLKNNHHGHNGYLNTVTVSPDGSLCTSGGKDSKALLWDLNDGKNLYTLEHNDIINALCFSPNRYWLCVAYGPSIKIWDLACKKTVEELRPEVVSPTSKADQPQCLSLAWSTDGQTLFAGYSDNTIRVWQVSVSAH

In doi:10.1101/075556:

Biological target: T1, Spin-GFP (Spinster) (Drosophila) (UniProt Q9GQQ0)
T1 sequence: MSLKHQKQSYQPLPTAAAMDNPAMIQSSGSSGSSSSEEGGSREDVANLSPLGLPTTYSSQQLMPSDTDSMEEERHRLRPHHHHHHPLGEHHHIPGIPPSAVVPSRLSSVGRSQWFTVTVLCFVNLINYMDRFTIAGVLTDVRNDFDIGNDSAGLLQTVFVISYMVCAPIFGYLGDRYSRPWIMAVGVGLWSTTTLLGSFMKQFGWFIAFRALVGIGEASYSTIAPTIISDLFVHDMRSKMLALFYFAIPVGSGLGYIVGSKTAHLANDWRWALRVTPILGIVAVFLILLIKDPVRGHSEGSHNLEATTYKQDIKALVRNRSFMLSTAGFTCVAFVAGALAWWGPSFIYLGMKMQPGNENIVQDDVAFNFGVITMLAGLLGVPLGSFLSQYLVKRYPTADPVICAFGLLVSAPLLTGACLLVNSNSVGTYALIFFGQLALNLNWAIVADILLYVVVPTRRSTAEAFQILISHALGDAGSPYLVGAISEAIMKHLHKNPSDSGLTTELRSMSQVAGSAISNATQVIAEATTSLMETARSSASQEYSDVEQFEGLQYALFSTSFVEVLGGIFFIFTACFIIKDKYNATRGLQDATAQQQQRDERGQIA
Assay: affinity purification with mass spectrometry

Row | binding | Substance
1 | binds | Apolipophorin (from UniProt Q9V496 26-3351)
2 | binds | Guanine nucleotide-binding protein subunit beta-like protein/Rack1 (from UniProt O18640 1-318)

These are yes or no findings as the source states them, for the method shown. Binding seen in cells or lysates may run through a third protein. A yes stands for co-enrichment or nearness to the bait. Other partners may have been found. Tags and fused reporters may be left off the sequences shown.
